# Tested on: Menschliche Leukämiezellen und Lungenkarzinomzellen
# Test: Inhibition of proliferation (growth kinetics by cell count) of tumour cells in culture
# Assay type: cell-based
structure (smiles),measurement,setting,value
"CCN(CC)C(=O)N[C@H]1C=C2c3cccc4[nH]cc(c34)C[C@H]2N(C)C1 [Lisurid, 1,1-Diethyl-3-(6-methyl-9.10-didelhydro-8a-ergolinyl)-harnstoff]",inhibition at 5 µg/mL,"5 pg/ml, cell count after 48, 96 and 144 h, versus Lisurid-free medium, read-out: Hemmung der Zellvermehrung (Maximalwerte)",≤ 18%
same,inhibition at 20 µg/mL,"20 µg/ml, cell count after 48, 96 and 144 h, versus Lisurid-free medium, read-out: Hemmung der Zellvermehrung (Maximalwerte)",≤ 53%
same,inhibition at 40 µg/mL,"40 ug/ml, cell count after 48, 96 and 144 h, versus Lisurid-free medium, read-out: Hemmung der Zellvermehrung (Maximalwerte)",≤ 68%
same,inhibition at 100 µg/mL,"100 µg/ml, cell count after 48, 96 and 144 h, versus Lisurid-free medium, read-out: Hemmung der Zellvermehrung (Maximalwerte)",> 100%
same,zytostatische Wirkung (Hemmung der Proliferation in vitro),"general statement, in vitro",zytostatisch wirken

# From patent EP0120019B1, “PHARMACEUTICAL COMPOSITION HAVING A C[…]” (SCHERING AKTIENGESELLSCHAFT, priority 1982, dated 1983)
